Results are given in words; binding and its absence hold for the method and conditions named. Some results given as binding are weak or reduced against the parent protein; the word gives no strength. Sequences can lack the tags named with a protein.

The chains behind the UniProt entries cited, without tags or fusion partners. Where a name states a change or a piece, a line headed by the entry shows the natural chain unless it says otherwise.
UniProt P51654: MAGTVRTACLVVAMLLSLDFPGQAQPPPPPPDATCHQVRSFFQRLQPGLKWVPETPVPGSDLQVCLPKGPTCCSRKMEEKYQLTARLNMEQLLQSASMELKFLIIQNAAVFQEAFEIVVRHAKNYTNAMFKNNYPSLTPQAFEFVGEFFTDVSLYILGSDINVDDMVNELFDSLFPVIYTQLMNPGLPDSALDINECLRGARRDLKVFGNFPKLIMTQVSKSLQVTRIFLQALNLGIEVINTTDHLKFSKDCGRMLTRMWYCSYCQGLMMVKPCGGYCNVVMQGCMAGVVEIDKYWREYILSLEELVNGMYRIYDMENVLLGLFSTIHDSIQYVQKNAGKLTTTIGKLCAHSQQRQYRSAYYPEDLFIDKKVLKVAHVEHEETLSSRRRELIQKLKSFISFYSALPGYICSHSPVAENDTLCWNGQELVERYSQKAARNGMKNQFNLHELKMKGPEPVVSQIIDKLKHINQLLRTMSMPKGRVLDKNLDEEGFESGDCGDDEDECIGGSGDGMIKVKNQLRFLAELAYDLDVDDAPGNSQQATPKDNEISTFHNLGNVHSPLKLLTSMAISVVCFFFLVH

The target in the test is T1, human GPC3 recombinant protein (human, UniProt P51654 25-559).
T1 construct: also called huGPC3; Human GPC3 protein
In words: SPR epitope binning on human GPC3. As to the method: The 19 VHH-His tagged domains were then evaluated for epitope-binding site. All VHHs were injected one at a time to evaluate the epitope binding site for each VHH domain. […] Human GPC3 was injected followed by an off rate wash for 4 minutes. No binding is observed if the VHH binds at the same epitope as VHH2, while a second binding event is observed if the VHH binds at a different epitope. All VHHs were binned into two groups based on the epitopes. VHH2 and VHH3 bind the same epitope and all other VHs bind the second epitope (FIG. 19).

B1: anti-GPC3 VHH-His tagged domain VHH6 (VHH)
VHH: QVQLVESGGGLVQPGGSLRLSCAASGFIFSSYAMSWVRQAPGKEPEWVSSISGGGSSTYYADSLEGRFTISRDNSKNTLYLQMNSLRAEDTAVYYCSKDPRFGEPPFDYWGQGTTVTVSS
notes: Produced from a mammalian expression vector as a His fusion; not shown: His tag
Take B1: the binding result is on record as “binds”.

B2: anti-GPC3 VHH-His tagged domain VHH3 (VHH)
VHH: EVQLVESGGGVVQPGRSLRLSCAASGFTFSNYLMQWVRQAPGKGLVWLSNINSDGSSTDYADSVKGRFTISRDNAKNTLYLQMNSLRAEDTAVYYCRVGAFDYWGQGTLVTVSS
notes: as for B1
Take B2: the binding result was “binds”.

The values above are taken from patent US20260191905A1 (MODERNATX, published 2026).
